Results deposited as PubChem BioAssay AID686937 (Drosophila RNAi Screening Center, 2013)

Aim: 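Genes whose loss weakens secretory pathway function in fly cells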 (primary screen)
Cells: Drosophila S2 cells expressing secreted horseradish peroxidase
Reagents: long dsRNA against Drosophila genes
Timing: about 5.5 days (5 days dsRNA, then 12 h reporter induction)
Conditions: reporter expression induced after 5 days of dsRNA, read 12 h later; inducer not stated
Read-out: 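Chemiluminescent measurement of peroxidase in the medium 12 h after reporter induction, following 5 days of dsRNA, given as a z-score per plate; higher means more secretion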
Reading the numbers: z-score: higher = more reporter secreted into medium
The deposit covers about 23,000 reagents; shown is an unselected part of those with a known target gene and a result. 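Reduced-secretion tags in replicate 1 do not always agree with the z-scores; no criterion for assigning the tags was given.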 A plus sign joins genes that one reagent is predicted to hit. Further read-outs or replicates are left out here. Not stated in the record: the amount of reagent.

z-score, replicate 1, by target gene and reagent
CG13603 (GeneID 42838): SID104194398 0.19
Nprl2 (GeneID 32677): SID104199945 0.39
RNaseX25 (GeneID 38885): SID104191051 0.3
NimB2 (GeneID 260645): SID104202050 0.23
CG33514 (GeneID 3346239): SID104188263 0.32; SID104188264 0.19; SID104201354 -0.61
pall (GeneID 39104): SID104190156 0.26
CG46301 (GeneID 34829): SID104181708 0.46
CG30325 (GeneID 246541): SID104185477 0.76
Spn47C (GeneID 36163): SID104186822 0.25
del (GeneID 35380): SID104182962 0.02
CG11722 (GeneID 41227): SID104194150 0.27
Flacc (GeneID 32886): SID104199832 -0.15
CG9416 (GeneID 37223): SID104187131 0.69
Lamtor1 (GeneID 40193): SID104189975 -0.31
Glg1 (GeneID 40382): SID104191607 0.26; SID104191608 0.32; SID104191609 0.53
CG10365 (GeneID 42801): SID104194026 0.35
brm (GeneID 39744): SID104191122 -1.33
Prosalpha5 (GeneID 36951): SID104187306 0.44
mRpL10 (GeneID 33182): SID104180104 0.4
Nup358 (GeneID 43041): SID104194202 -1.21
CCKLR-17D3 (GeneID 32864): SID104199807 0.7; SID104199809 0.02
CG9706 (GeneID 39876): SID104190887 -0.93
CG33170 (GeneID 326267): SID104191646 0.44; SID104201852 0.02

Records above whose gene name begins with P or p (2):
z-score, replicate 1, by target gene and reagent
pall (GeneID 39104): SID104190156 0.26
Prosalpha5 (GeneID 36951): SID104187306 0.44

Next records follow:
z-score, replicate 1, by target gene and reagent
CG12620 (GeneID 35034): SID104181969 0.09
CG13048 (GeneID 39789): SID104189721 0.09
CG2150 (GeneID 43745): SID104195212 0.39
CG13085 (GeneID 35219): SID104181981 0.23
sca (GeneID 36411): SID104187469 -0.2
CG11406 (GeneID 37877): SID104183802 0.21; SID104183900 0.71
CG14062 (GeneID 43389): SID104194517 0.3
CG7166 (GeneID 40401): SID104191601 0.14
olf413 (GeneID 40453): SID104191335 0.54; SID104191471 0.42; SID104191513 0.18; SID104191625 0.17
CG42561 (GeneID 8674029): SID104185468 0.16
Indy (GeneID 40049): SID104190185 0.31
asRNA:CR30267 + CG42260: SID104183745 0.2
CG34125 (GeneID 4379886): SID104180642 -0.32
RpL24 (GeneID 34754): SID104182977 -2.84
CG11041 (GeneID 37278): SID104185817 0.31
CG9737 (GeneID 43600): SID104196342 0.27
Gr98c (GeneID 117336): SID104201748 -1.12
mora (GeneID 42874): SID104196386 0.32
CG34278 (GeneID 5740656): SID104193000 0.32
Alg11 (GeneID 40402): SID104191439 0.05
smash (GeneID 40583): SID104191931 0.04; SID104191933 0.31; SID104192031 0.01; SID104192081 0.27
